From ChEMBL document CHEMBL3988442, “University of Dundee, Small-Polar-MMV Screening Library” (2021).

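Whole-cell assay for inhibitors of Mycobacterium tuberculosis growth, labelled Cornell in the record; the read-out is not stated. The concentration is filed as 10 mM, unlikely as a test dose, so the dose is not known. The record gives no direction; compounds strong in two other growth screens of this library score well above the rest, so higher reads as stronger inhibition. Of about 53,000 compounds tested this way, about 900 (1.7%) reached 50% or more in at least one test.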

Values are the deposited “Percent Effect”, in %. The controls that fix the scale are not given in the record; negative values are as filed. This is an unselected part of the compounds tested.

CCc1[nH]ncc1C(=O)N1CCCC(n2nc(C)nc2C)C1 (stereo unspecified) read -1.654%. For Cn1cccc1C(O)CNC(=O)c1ccc(F)c(F)c1 (stereo unspecified) the result was 19.39%. CCn1cncc1Cn1cccc(C(F)(F)F)c1=O read 0.8941%. With CC(SCC(=O)NC(N)=O)c1ccccc1F (stereo unspecified) the screen gave -15.78%. CN(CCc1ccncc1)C(=O)C1CSCN1C(=O)C(C)(C)C (stereo unspecified) gave -1.052%. For CC(C)c1noc(CN(C)C(=O)C2COc3ccccc3C2)n1 (stereo unspecified) the result was 11.72%. For CCC1CCCCN1C(=O)CCn1cnc2sccc2c1=O (stereo unspecified) the result was -11.41%. With CCc1cc(N2CCNCC2)n2nc(C)c(C)c2n1 the screen gave 12.45%.

For O=C(Cc1ccccc1)N1CCC2(CC(=O)N(c3cccc(F)c3)C2)C1 (stereo unspecified) the result was 7.022%. Result for O=C(NCC1CC1)C1=NOC2(CCN(Cc3ccc4c(c3)OCO4)C2)C1 (stereo unspecified) was 9.072%. Cc1cc(F)ccc1N1CCCC(NC(=O)CCc2ccncc2)C1 (stereo unspecified) gave 10.53%. With CN(C)C(=O)N1CCC2(CCCN(CCOc3ccccc3)C2)C1.O=C(O)C(F)(F)F (stereo unspecified) the screen gave 30.06%. With Cc1nn(C)c(C)c1C1CCCN1C(=O)c1cc(C(N)=O)cs1 (stereo unspecified) the screen gave -1.189%. CC(C)n1ccnc1C1CCN(C(=O)c2ccccn2)CC1 gave 4.35%. CCCc1ccc2oc(C(=O)N3CCCN(C)CC3)c(C)c2c1 read 28.1%. Cc1nc(Nc2nccs2)cc(C2CCCN2)n1.Cl (stereo unspecified) gave 16.49%.

COCC(C)NC(=O)c1nnn(-c2ccc(Br)cc2)n1 (stereo unspecified) gave -6.319%. CCOCCCn1c(NC(=O)c2cnn(C)c2)nc2ccccc21 read 87.33%. O=C(O)C(F)(F)F.[H][C@@]12CCCO[C@]1([H])[C@@H](Oc1cccnc1)CN2S(=O)(=O)N(C)C gave -7.058%. With Cn1ccc2c(-c3ccc(NC4CC4)nn3)ccnc21 the screen gave 30.87%. CC(=O)N1CCN(c2cnnc(N3CCCC3)c2)CC1 gave 8.725%. For Cn1cnc2c1C(C(=O)N1CCCC1)N(CC1CC1)CC2.O=C(O)C(F)(F)F (stereo unspecified) the result was 18.83%. Cc1noc(C)c1CN1CCCC2(CCN(CC3CCCC3)C2)C1.O=C(O)C(F)(F)F (stereo unspecified) read -4.359%. COc1ccc(Cl)cc1-c1cc(NC(=O)C2COCCO2)[nH]n1 (stereo unspecified) gave 0.1721%.

With CC(Cn1cccn1)NCc1nc(-c2cccc(Cl)c2)no1 (stereo unspecified) the screen gave 40.12%. For CCCS(=O)(=O)c1ccc(N2CCN(Cc3ccccc3)CC2)nn1 the result was -27.45%. For C[S+]([O-])CCNCc1ccc(OCc2cscn2)cc1 (stereo unspecified) the result was -9.103%. With Cc1ccc(C(=O)O)c(N2Cc3cnc(C(C)(C)C)nc3C2)n1 the screen gave 23.26%. CC(C)Nc1cc(N2CCN(Cc3ccccc3)C(CCO)C2)ncn1 (stereo unspecified) gave 1.844%. For CCS(=O)(=O)N1CCCC2(CCCN2Cc2cccc(Cl)c2)C1.O=C(O)C(F)(F)F (stereo unspecified) the result was 28.19%. For CC(C)Nc1cc(N2CCC(n3cc(C4CCCC4)nn3)CC2)ncn1 the result was 22.81%. For Cc1ccc(C)c(CSc2nnc(C(N)C(C)C)o2)c1.Cl (stereo unspecified) the result was -2.211%.

With O=c1[nH]c(CN2CCOC(Cn3cccn3)C2)nc2ccccc12 (stereo unspecified) the screen gave 0.338%. For CC1CCCN(Cc2csc(-c3ncccn3)n2)CC1 (stereo unspecified) the result was 28.72%. For COCCCN1CCC(NC2CSCCc3ccccc32)CC1 (stereo unspecified) the result was 20.54%. Result for CNc1[nH]nc(N)c1C(=O)Nc1ccccc1 was -18.4%. Cc1c(C(C)NC2CCCC2)cnn1-c1ccc(F)cc1F (stereo unspecified) read -4.619%. COc1cccc(-c2nc(CNC(C)Cn3cccn3)cs2)c1 (stereo unspecified) read 32.64%.

Repeated from the top, 3 entries:

| Compound | effect |
|---|---|
| `CCc1[nH]ncc1C(=O)N1CCCC(n2nc(C)nc2C)C1` (stereo unspecified) | -1.654 |
| `Cn1cccc1C(O)CNC(=O)c1ccc(F)c(F)c1` (stereo unspecified) | 19.39 |
| `CCn1cncc1Cn1cccc(C(F)(F)F)c1=O` | 0.8941 |